Results are given in words; binding and its absence hold for the method and conditions named. Binding seen in cells or lysates may run through a third protein. Binding can be weak; no strength is given. Tags and fused reporters may be left off the sequences shown.

Assay [1] concerns the target T1, GFP-Wg (Wingless tagged with GFP) (Drosophila melanogaster) (UniProt P09615).
T1 sequence: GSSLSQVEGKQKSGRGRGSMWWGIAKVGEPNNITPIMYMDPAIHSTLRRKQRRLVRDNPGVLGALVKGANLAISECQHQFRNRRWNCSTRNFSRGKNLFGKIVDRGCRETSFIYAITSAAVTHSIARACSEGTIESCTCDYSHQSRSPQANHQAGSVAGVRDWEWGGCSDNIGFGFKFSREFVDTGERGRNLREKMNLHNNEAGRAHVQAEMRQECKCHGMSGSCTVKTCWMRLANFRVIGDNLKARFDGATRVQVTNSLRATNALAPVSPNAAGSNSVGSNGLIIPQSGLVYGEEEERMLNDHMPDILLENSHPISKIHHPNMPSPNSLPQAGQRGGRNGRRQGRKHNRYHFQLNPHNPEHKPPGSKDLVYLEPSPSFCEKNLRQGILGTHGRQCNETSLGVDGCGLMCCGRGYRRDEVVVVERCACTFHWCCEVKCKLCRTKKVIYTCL
Description: co-IP; Extracts of S2 cells transfected with GFP-wg and sona. Lysis in HEPES buffer (20 mM HEPES, 70 mM KCl, 2 mM DTT, 0.1% NP40, 8% glycerol, 10 mM EDTA, 10 mM EGTA). Precleared lysates were incubated overnight at 4 °C with protein G-sepharose beads coupled to Sona-Pro or anti-GFP antibody. Detection by Western blot. In general terms: A western blot detects proteins with antibodies after separation by electrophoresis.

The target of assay [2] is Sol narae (Sona), Sona-PA form (Drosophila melanogaster). The assay is described as above.

In the case of “Sol narae (Sona), Sona-PA form (Drosophila melanogaster) (enzyme)”, the binding result in assay [1] is reported as “binds”.

B1: GFP-Wg (Wingless tagged with GFP) (ligand, UniProt P09615 18-468)
chain: GSSLSQVEGKQKSGRGRGSMWWGIAKVGEPNNITPIMYMDPAIHSTLRRKQRRLVRDNPGVLGALVKGANLAISECQHQFRNRRWNCSTRNFSRGKNLFGKIVDRGCRETSFIYAITSAAVTHSIARACSEGTIESCTCDYSHQSRSPQANHQAGSVAGVRDWEWGGCSDNIGFGFKFSREFVDTGERGRNLREKMNLHNNEAGRAHVQAEMRQECKCHGMSGSCTVKTCWMRLANFRVIGDNLKARFDGATRVQVTNSLRATNALAPVSPNAAGSNSVGSNGLIIPQSGLVYGEEEERMLNDHMPDILLENSHPISKIHHPNMPSPNSLPQAGQRGGRNGRRQGRKHNRYHFQLNPHNPEHKPPGSKDLVYLEPSPSFCEKNLRQGILGTHGRQCNETSLGVDGCGLMCCGRGYRRDEVVVVERCACTFHWCCEVKCKLCRTKKVIYTCL
Regarding B1, in assay [2], the binding entry is recorded as “binds”.

(Values after PMC4989167.)
